In PMC8473724 one finds binding data, which are given here for four molecules.

No constants are given. Whether binding was seen depends on the method and setting. Binding seen in cells or lysates may run through a third protein. Here binding means that the protein was enriched with, or labelled near, the bait; the list need not be complete. Tags and fused reporters may be left off the sequences shown.

This assay has as its target T1, FLAG-PTP1B D181A-Y46F substrate trapping mutant (full-length) (UniProt P18031).
T1 sequence: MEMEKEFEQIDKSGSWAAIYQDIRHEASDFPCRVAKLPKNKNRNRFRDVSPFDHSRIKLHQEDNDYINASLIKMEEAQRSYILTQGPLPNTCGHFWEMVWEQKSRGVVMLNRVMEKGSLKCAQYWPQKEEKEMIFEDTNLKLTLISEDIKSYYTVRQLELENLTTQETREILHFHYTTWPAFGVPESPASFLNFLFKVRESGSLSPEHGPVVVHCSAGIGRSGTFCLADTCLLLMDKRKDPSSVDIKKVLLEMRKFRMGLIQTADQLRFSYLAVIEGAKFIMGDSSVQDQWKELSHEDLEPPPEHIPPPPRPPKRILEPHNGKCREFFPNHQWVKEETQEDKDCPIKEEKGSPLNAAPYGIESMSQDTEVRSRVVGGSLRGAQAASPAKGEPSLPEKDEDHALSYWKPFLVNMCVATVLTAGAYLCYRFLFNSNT
Briefly: affinity purification with mass spectrometry; SILAC substrate trapping: anti-FLAG co-IP from PTP1B KO Ramos cells with empty vector, FLAG-PTP1B-D181A-Y46F or its Δ406-435 form; elution with FLAG peptide, SDS-PAGE, in-gel digestion, LC-MS; hits: mean SILAC ratio >= 2 and P < 0.05 (n = 3).

B1: Rho GTPase-activating protein 12 (ARHGAP12) (protein, UniProt Q8IWW6 1-846)
chain: MKMADRSGKIIPGQVYIEVEYDYEYEAKDRKIVIKQGERYILVKKTNDDWWQVKPDENSKAFYVPAQYVKEVTRKALMPPVKQVAGLPNNSTKIMQSLHLQRSTENVNKLPELSSFGKPSSSVQGTGLIRDANQNFGPSYNQGQTVNLSLDLTHNNGKFNNDSHSPKVSSQNRTRSFGHFPGPEFLDVEKTSFSQEQSCDSAGEGSERIHQDSESGDELSSSSTEQIRATTPPNQGRPDSPVYANLQELKISQSALPPLPGSPAIQINGEWETHKDSSGRCYYYNRGTQERTWKPPRWTRDASISKGDFQNPGDQELLSSEENYYSTSYSQSDSQCGSPPRGWSEELDERGHTLYTSDYTNEKWLKHVDDQGRQYYYSADGSRSEWELPKYNASSQQQREIIKSRSLDRRLQEPIVLTKWRHSTIVLDTNDKESPTASKPCFPENESSPSSPKHQDTASSPKDQEKYGLLNVTKIAENGKKVRKNWLSSWAVLQGSSLLFTKTQGSSTSWFGSNQSKPEFTVDLKGATIEMASKDKSSKKNVFELKTRQGTELLIQSDNDTVINDWFKVLSSTINNQAVETDEGIEEEIPDSPGIEKHDKEKEQKDPKKLRSFKVSSIDSSEQKKTKKNLKKFLTRRPTLQAVREKGYIKDQVFGSNLANLCQRENGTVPKFVKLCIEHVEEHGLDIDGIYRVSGNLAVIQKLRFAVNHDEKLDLNDSKWEDIHVITGALKMFFRELPEPLFTFNHFNDFVNAIKQEPRQRVAAVKDLIRQLPKPNQDTMQILFRHLRRVIENGEKNRMTYQSIAIVFGPTLLKPEKETGNIAVHTVYQNQIVELILLELSSIFGR
Turning to B1, the binding entry was “binds”.

B2: guanine nucleotide exchange factor VAV1 (protein, UniProt P15498 1-845)
chain: MELWRQCTHWLIQCRVLPPSHRVTWDGAQVCELAQALRDGVLLCQLLNNLLPHAINLREVNLRPQMSQFLCLKNIRTFLSTCCEKFGLKRSELFEAFDLFDVQDFGKVIYTLSALSWTPIAQNRGIMPFPTEEESVGDEDIYSGLSDQIDDTVEEDEDLYDCVENEEAEGDEIYEDLMRSEPVSMPPKMTEYDKRCCCLREIQQTEEKYTDTLGSIQQHFLKPLQRFLKPQDIEIIFINIEDLLRVHTHFLKEMKEALGTPGAANLYQVFIKYKERFLVYGRYCSQVESASKHLDRVAAAREDVQMKLEECSQRANNGRFTLRDLLMVPMQRVLKYHLLLQELVKHTQEAMEKENLRLALDAMRDLAQCVNEVKRDNETLRQITNFQLSIENLDQSLAHYGRPKIDGELKITSVERRSKMDRYAFLLDKALLICKRRGDSYDLKDFVNLHSFQVRDDSSGDRDNKKWSHMFLLIEDQGAQGYELFFKTRELKKKWMEQFEMAISNIYPENATANGHDFQMFSFEETTSCKACQMLLRGTFYQGYRCHRCRASAHKECLGRVPPCGRHGQDFPGTMKKDKLHRRAQDKKRNELGLPKMEVFQEYYGLPPPPGAIGPFLRLNPGDIVELTKAEAEQNWWEGRNTSTNEIGWFPCNRVKPYVHGPPQDLSVHLWYAGPMERAGAESILANRSDGTFLVRQRVKDAAEFAISIKYNVEVKHIKIMTAEGLYRITEKKAFRGLTELVEFYQQNSLKDCFKSLDTTLQFPFKEPEKRTISRPAVGSTKYFGTAKARYDFCARDRSELSLKEGDIIKILNKKGQQGWWRGEIYGRVGWFPANYVEEDYSEYC
Consider B2, for which the binding result is recorded as “binds”.

B3: B cell adapter for phosphoinositide 3-kinase (BCAP) (protein, UniProt Q6ZUJ8 1-805)
chain: MAASGVPRGCDILIVYSPDAEEWCQYLQTLFLSSRQVRSQKILTHRLGPEASFSAEDLSLFLSTRCVVVLLSAELVQHFHKPALLPLLQRAFHPPHRVVRLLCGVRDSEEFLDFFPDWAHWQELTCDDEPETYVAAVKKAISEDSGCDSVTDTEPEDEKVVSYSKQQNLPTVTSPGNLMVVQPDRIRCGAETTVYVIVRCKLDDRVATEAEFSPEDSPSVRMEAKVENEYTISVKAPNLSSGNVSLKIYSGDLVVCETVISYYTDMEEIGNLLSNAANPVEFMCQAFKIVPYNTETLDKLLTESLKNNIPASGLHLFGINQLEEEDMMTNQRDEELPTLLHFAAKYGLKNLTALLLTCPGALQAYSVANKHGHYPNTIAEKHGFRDLRQFIDEYVETVDMLKSHIKEELMHGEEADAVYESMAHLSTDLLMKCSLNPGCDEDLYESMAAFVPAATEDLYVEMLQASTSNPIPGDGFSRATKDSMIRKFLEGNSMGMTNLERDQCHLGQEEDVYHTVDDDEAFSVDLASRPPVPVPRPETTAPGAHQLPDNEPYIFKVFAEKSQERPGNFYVSSESIRKGPPVRPWRDRPQSSIYDPFAGMKTPGQRQLITLQEQVKLGIVNVDEAVLHFKEWQLNQKKRSESFRFQQENLKRLRDSITRRQREKQKSGKQTDLEITVPIRHSQHLPAKVEFGVYESGPRKSVIPPRTELRRGDWKTDSTSSTASSTSNRSSTRSLLSVSSGMEGDNEDNEVPEVTRSRSPGPPQVDGTPTMSLERPPRVPPRAASQRPPTRETFHPPPPVPPRGR
As for B3, the binding entry was “binds”.

B4: PLCγ2 (enzyme, UniProt P16885 1-1265)
chain: MSTTVNVDSLAEYEKSQIKRALELGTVMTVFSFRKSTPERRTVQVIMETRQVAWSKTADKIEGFLDIMEIKEIRPGKNSKDFERAKAVRQKEDCCFTILYGTQFVLSTLSLAADSKEDAVNWLSGLKILHQEAMNASTPTIIESWLRKQIYSVDQTRRNSISLRELKTILPLINFKVSSAKFLKDKFVEIGAHKDELSFEQFHLFYKKLMFEQQKSILDEFKKDSSVFILGNTDRPDASAVYLHDFQRFLIHEQQEHWAQDLNKVRERMTKFIDDTMRETAEPFLFVDEFLTYLFSRENSIWDEKYDAVDMQDMNNPLSHYWISSSHNTYLTGDQLRSESSPEAYIRCLRMGCRCIELDCWDGPDGKPVIYHGWTRTTKIKFDDVVQAIKDHAFVTSSFPVILSIEEHCSVEQQRHMAKAFKEVFGDLLLTKPTEASADQLPSPSQLREKIIIKHKKLGPRGDVDVNMEDKKDEHKQQGELYMWDSIDQKWTRHYCAIADAKLSFSDDIEQTMEEEVPQDIPPTELHFGEKWFHKKVEKRTSAEKLLQEYCMETGGKDGTFLVRESETFPNDYTLSFWRSGRVQHCRIRSTMEGGTLKYYLTDNLTFSSIYALIQHYRETHLRCAEFELRLTDPVPNPNPHESKPWYYDSLSRGEAEDMLMRIPRDGAFLIRKREGSDSYAITFRARGKVKHCRINRDGRHFVLGTSAYFESLVELVSYYEKHSLYRKMRLRYPVTPELLERYNMERDINSLYDVSRMYVDPSEINPSMPQRTVKALYDYKAKRSDELSFCRGALIHNVSKEPGGWWKGDYGTRIQQYFPSNYVEDISTADFEELEKQIIEDNPLGSLCRGILDLNTYNVVKAPQGKNQKSFVFILEPKQQGDPPVEFATDRVEELFEWFQSIREITWKIDTKENNMKYWEKNQSIAIELSDLVVYCKPTSKTKDNLENPDFREIRSFVETKADSIIRQKPVDLLKYNQKGLTRVYPKGQRVDSSNYDPFRLWLCGSQMVALNFQTADKYMQMNHALFSLNGRTGYVLQPESMRTEKYDPMPPESQRKILMTLTVKVLGARHLPKLGRSIACPFVEVEICGAEYDNNKFKTTVVNDNGLSPIWAPTQEKVTFEIYDPNLAFLRFVVYEEDMFSDPNFLAHATYPIKAVKSGFRSVPLKNGYSEDIELASLLVFCEMRPVLESEEELYSSCRQLRRRQEELNNQLFLYDTHQNLRNANRDALVKEFSVNENQLQLYQEKCNKRLREKRVSNSKFYS
For B4, the binding entry is recorded as “binds”.
